Measured values published in article PMC9576747.
Results are given in words; binding and its absence hold for the method and conditions named. Binding seen in cells or lysates may run through a third protein. Here binding means that the protein was enriched with, or labelled near, the bait; the list need not be complete. Sequences can lack the tags named with a protein.

By UniProt entry, the sequences of proteins in these tests, tags left out. Where a name states a change or a piece, a line headed by the entry shows the natural chain unless it says otherwise. Chains listed by the source or under a name are the forms on record and can include a tag or linker.
SERCA2a (P16615-2, form named): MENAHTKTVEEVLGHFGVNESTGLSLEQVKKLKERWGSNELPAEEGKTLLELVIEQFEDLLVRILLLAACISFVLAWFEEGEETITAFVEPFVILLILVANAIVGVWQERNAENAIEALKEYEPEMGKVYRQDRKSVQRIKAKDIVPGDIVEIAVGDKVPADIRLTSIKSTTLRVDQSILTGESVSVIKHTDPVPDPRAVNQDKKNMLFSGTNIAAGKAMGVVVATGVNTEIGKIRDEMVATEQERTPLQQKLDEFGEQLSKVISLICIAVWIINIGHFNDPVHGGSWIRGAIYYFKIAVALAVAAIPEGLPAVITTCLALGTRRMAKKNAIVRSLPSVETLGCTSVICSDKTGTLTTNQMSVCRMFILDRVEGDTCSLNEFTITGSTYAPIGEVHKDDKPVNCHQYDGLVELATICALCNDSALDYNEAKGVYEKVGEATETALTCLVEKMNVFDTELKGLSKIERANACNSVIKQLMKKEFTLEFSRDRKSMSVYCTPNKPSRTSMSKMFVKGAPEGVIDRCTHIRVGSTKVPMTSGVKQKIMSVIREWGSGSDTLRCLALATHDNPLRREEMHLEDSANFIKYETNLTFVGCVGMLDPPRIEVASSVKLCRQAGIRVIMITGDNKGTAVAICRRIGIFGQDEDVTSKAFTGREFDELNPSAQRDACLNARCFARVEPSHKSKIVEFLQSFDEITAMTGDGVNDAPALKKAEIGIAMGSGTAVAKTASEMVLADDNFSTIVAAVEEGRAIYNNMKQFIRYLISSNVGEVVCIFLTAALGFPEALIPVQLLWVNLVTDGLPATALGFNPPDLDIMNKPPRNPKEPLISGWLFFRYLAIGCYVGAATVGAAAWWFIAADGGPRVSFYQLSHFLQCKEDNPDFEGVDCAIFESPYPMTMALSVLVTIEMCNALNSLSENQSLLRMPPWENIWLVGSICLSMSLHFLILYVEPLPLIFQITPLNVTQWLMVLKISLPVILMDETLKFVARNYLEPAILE

Molecular target: T1, Flag-tagged variant of mouse ATRAP (angiotensin II type-1 receptor-associated protein) (mouse) (UniProt Q9WVK0)
T1 sequence: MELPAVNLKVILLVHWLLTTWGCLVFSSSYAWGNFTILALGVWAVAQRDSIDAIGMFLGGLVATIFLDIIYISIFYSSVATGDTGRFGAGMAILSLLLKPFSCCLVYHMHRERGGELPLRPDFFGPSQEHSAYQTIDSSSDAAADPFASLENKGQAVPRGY
Assay: affinity purification with mass spectrometry; anti-DYKKKK (Flag) magnetic beads on lysate of Dox-induced HEK293_F-mATRAP cells (T-lysis buffer: 20 mM HEPES NaOH, 150 mM NaCl, 0.05% Tween-20, 2.5 mM MgCl2, 1 mM DTT), 2 h at 4 °C, Flag peptide elution, SDS-PAGE, LC-MS/MS; Dox- cells as control

## SERCA2a (from UniProt P16615-2 1-997)
  binding: binds
